The values are deposited in ChEMBL (CHEMBL3988442, “University of Dundee, Small-Polar-MMV Screening Library” (2021)).

Protein sequences, listed by entry. Tags and fused reporters are not part of them.
UniProt E9BF75, entry or part of it: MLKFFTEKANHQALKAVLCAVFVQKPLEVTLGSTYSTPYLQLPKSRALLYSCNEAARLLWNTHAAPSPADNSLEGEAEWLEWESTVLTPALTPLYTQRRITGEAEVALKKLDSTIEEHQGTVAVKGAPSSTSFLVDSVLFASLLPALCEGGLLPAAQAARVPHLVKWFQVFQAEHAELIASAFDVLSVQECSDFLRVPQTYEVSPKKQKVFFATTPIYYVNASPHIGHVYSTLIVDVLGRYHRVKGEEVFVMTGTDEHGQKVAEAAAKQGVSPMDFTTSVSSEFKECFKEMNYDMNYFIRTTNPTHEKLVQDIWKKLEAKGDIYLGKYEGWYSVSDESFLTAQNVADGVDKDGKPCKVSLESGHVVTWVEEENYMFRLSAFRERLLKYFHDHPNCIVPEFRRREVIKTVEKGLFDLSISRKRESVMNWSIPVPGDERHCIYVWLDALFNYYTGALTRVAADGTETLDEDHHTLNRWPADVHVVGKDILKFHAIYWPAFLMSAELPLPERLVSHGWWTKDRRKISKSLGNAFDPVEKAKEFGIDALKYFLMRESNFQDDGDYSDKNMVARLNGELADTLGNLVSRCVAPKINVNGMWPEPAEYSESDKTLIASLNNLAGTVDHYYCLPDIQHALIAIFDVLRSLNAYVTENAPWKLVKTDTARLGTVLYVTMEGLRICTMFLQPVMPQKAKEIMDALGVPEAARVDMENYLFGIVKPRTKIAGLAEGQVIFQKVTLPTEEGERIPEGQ

A: 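Primary screen of methionyl-tRNA synthetase; the read-out is not stated. Target: Methionyl-tRNA synthetase (putative), Leishmania donovani (UniProt E9BF75). The test concentration is not given. The values are filed as inhibition. Size under these conditions: about 68,000 compounds, about 24 of them at 50% or above in at least one test.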
B: 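Assay on Mycobacterium tuberculosis, filed only as a heat shock assay from Cornell; the read-out is not stated. The concentration is filed as 10 mM, unlikely as a test dose, so the dose is not known. Direction is inferred from retests: higher values go with stronger inhibition. About 69,000 compounds were tested under these conditions; 1.4% (about 930) showed 50% or more at least once.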

Results are percentages, as filed. How 0% and 100% were set is not recorded. Most values in the screen are low, and negative values occur. Compounds were drawn at random from those tested, without regard to their results. A dash means the value is not listed here; it may have been measured.

structure	A	B
O=C(C1=CCCC1)N1C[C@@H]2COC[C@]2(COCC2CC2)C1	12.4%	-
Cc1nc(COCc2cnc3n2CCN(C2CCC2)C3C)cs1.O=C(O)C(F)(F)F (centres undefined)	-	7.427%
Cc1cc(C(=O)N2CCNC(=O)CC2)c(C)n1CC(F)(F)F	5.74%	-164%
O=C1N(c2cncnc2)CCC12CCCN(Cc1cccnc1)C2 (centres undefined)	13.33%	-
Cl.NCC(=O)N1CCCC1c1n[nH]cc1-c1ccccc1F (centres undefined)	-	-2.029%
O=C(CCN1CCCCO1)N1CCC(CO)(CCc2ccccc2)CC1	13.94%	-2.404%
Cc1cc(-c2cnc(N3CCNC(=O)C3)nc2-c2ccoc2C)on1	11.65%	1.913%
CCc1noc(CN(Cc2cccs2)C2CC2)n1	5.722%	0.1212%
CCCc1ccc(CN2CCN(C(=O)C(C)C)[C@@H]3CS(=O)(=O)C[C@@H]32)o1	9.966%	-
Cn1nccc1C(=O)N1CC[C@]2(C[C@H](OCc3ccccn3)CO2)C1.O=C(O)C(F)(F)F	-	-2.266%
O=C1CN(C(=O)c2cc(Cl)ccc2F)c2ccccc2N1	5.017%	4.187%
Cc1cc(CN2Cc3ccccc3CC2c2nnc(C)o2)on1 (centres undefined)	9.722%	6.11%
N#CCCN(Cc1cccnc1)C(=O)Cc1ccc(-n2cnnn2)cc1	20.88%	-3.918%
Cn1ccc2c(C(=O)NCCCN3CCOCC3)cccc21	1.749%	-5.603%
COc1ccc2c(c1)CCCN2C(=O)c1cccc(N(C)C)c1	0.2725%	1.361%
[H][C@@]12C[C@@H](O)C[C@]1([H])CN(Cc1cc(C(C)(C)C)ccc1OCC(=O)O)C2	-	-6.021%
O=S(=O)(c1ccccc1)N1C[C@@H]2CCCCN(Cc3cccs3)[C@@H]2C1	10.11%	-
COc1cccc(C(=O)N2CCc3nc(C4CCCN4)ncc3C2)c1.Cl (centres undefined)	-	-17.81%
Cc1ccc(C(=O)N2CCC(c3n[nH]c(C4CC4)n3)CC2)cc1F	16.33%	-5.402%
O=S(=O)(C1CC1)N1CCOCC2(CCN(c3ccccn3)C2)C1 (centres undefined)	2.075%	-
CCOCC1CN(Cc2cnn(C)c2)Cc2c1cnn2CC (centres undefined)	-0.6536%	-
Cc1nnc(SCC(=O)N2CCC3(CC2)c2ccccc2CC3O)o1 (centres undefined)	9.449%	-1.06%
Cc1cc(C)nc(N2CCOC(C)(C(=O)N(C)C)C2)n1 (centres undefined)	5.696%	13.56%
COc1ccc(CCC(=O)NCCN2CCC(c3cccs3)CC2)cc1	16.34%	9.096%
Cn1cc(N2CC3(COCCN(Cc4ccccn4)C3)OCC2=O)cn1.O=C(O)C(F)(F)F (centres undefined)	-	-20.33%
Cn1cc(CNC2CCc3c(ccc(=O)n3Cc3ccncc3)C2)cn1 (centres undefined)	14.66%	-
CC(C)Nc1nc(O)cc(C2CC(=O)N(Cc3ccccn3)C2)n1.Cl (centres undefined)	-	-14.22%
CCc1nc(CN(Cc2cccs2)CC2CCCO2)no1 (centres undefined)	9.028%	-4.875%
COc1ccc(CN2C[C@@H]3CC[C@H](C2)N(Cc2snnc2C)C3)cc1	9.524%	-
Cc1cnn(CC2CN(Cc3nc(-c4ccsc4)no3)CCO2)c1 (centres undefined)	11.48%	77.9%
Cc1ccc(Cl)cc1NC(=O)Cn1cc(C(=O)O)ccc1=O	1.818%	-2.595%
CCN(CC(=O)N(C)C)S(=O)(=O)c1cnc2c(c1)c(C)nn2C	10.96%	7.699%
Cc1cnc(N)c(C(=O)C2CCN(C(=O)c3ccccc3F)CC2)c1	14.29%	9.679%
COC(=O)CNC(=O)C1CCN(S(C)(=O)=O)CC1	3.359%	-23.26%
COCCN1CCCC(c2nc3c([nH]2)CC(C)(C)CNC3=O)C1 (centres undefined)	17.75%	-8.733%
O=C(Nc1ccccc1)C1CN(CC2CC2)CC12CCOCC2.O=C(O)C(F)(F)F (centres undefined)	-	27.12%
CC(C)CN1CCC2(Cc3ccccc3NC2=O)C1 (centres undefined)	10.95%	-15.75%
CC(C)c1nn(C)c(N(C)C)c1CNCc1cccnc1	14.95%	21.72%
Cn1cnn(Cc2c(F)cccc2Br)c1=O	15.71%	5.373%
Cc1ccc(CN2CC[C@H](c3nc4cccc(C(N)=O)c4[nH]3)C2)cc1	5.263%	-27.29%
CCOCCCNC(=O)Cc1cccc(F)c1	5.245%	-12.56%
CC(=O)c1c(C)nn(CC(=O)N2Cc3cnc(CC(C)C)nc3C2)c1C	12.24%	-12.82%
c1csc(CN2Cc3nccn3CC(Cn3cncn3)C2)n1 (centres undefined)	17.5%	-
Cc1ncc(CNCC(C)O)c2cc(C(=O)c3ccc(Br)cc3)oc12 (centres undefined)	25.2%	-
O=C(CCO)N1C[C@H]2CN(c3ccccc3)C(=O)[C@H]2C1	14.01%	-
CC(C)c1nnc2n1CC(CNC/C=C/c1ccccc1)CC2 (centres undefined)	19.45%	15.36%
CCN(Cc1cccc(C(N)=O)c1)c1ccccc1	3.014%	-10.93%
Cl.Cl.O=C(NCc1cncc2c1CCN(Cc1ccc(F)cc1)C2)C1CC1	-	-21.38%
NS(=O)(=O)CCNC(=O)c1nnn(-c2ccc(F)cc2)c1C1CC1	16.19%	8.846%
[H][C@@]12CN(C(=O)COCC)C[C@]1([H])C(=O)N(CC1CC1)C2	-	-11.48%
CCC(NC(=O)c1nn(C)cc1C(=O)O)c1ccc(C)cc1 (centres undefined)	1.892%	-6.854%
Cc1ccc(N2CCC3(CC2)CCN(C2CCOCC2)CC3)nn1	13.59%	-
Cc1nc(CSc2nc(=O)ccn2C(C)C)cs1	6.25%	19.46%
CC(C)N1CCO[C@H]2CN(S(=O)(=O)c3ccc(C#N)cc3)C[C@H]21	8.711%	-
O=C(NC1CCCN(c2ccccc2Cl)C1)c1ccc(=O)[nH]n1 (centres undefined)	17.76%	3.631%
CN(C)C(=O)C1CCC2(CCN(C(=O)Nc3ccc(F)cc3)CC2)O1 (centres undefined)	11.14%	32.01%
CN1CCC/C1=N\S(=O)(=O)c1ccc(NC(=O)c2ccc(Cl)s2)cc1	16.94%	10.63%
Cc1cnn(CC2CCCCN2c2nn3cc(C)nc3s2)c1 (centres undefined)	15.85%	-29.06%
COc1cccc(-c2cc(NCCN(C)C)nc3[nH]ccc23)n1	21.7%	-0.7465%
COc1ccc(-c2nnsc2C(=O)N2CCOCC2)cc1	15.55%	-0.7157%
CCCc1nnc(NC(=O)NC(CCO)c2cccs2)s1 (centres undefined)	-11.6%	19.65%
Cc1nc(N)nc(C)c1CC(=O)N1CCC2(CC1)OCCCC2O (centres undefined)	9.756%	1.007%
[H][C@@]12CCN(Cc3ccco3)[C@]1([H])CC[C@@H](C(=O)NCc1cnc(C)cn1)O2	-	-5.666%
CCS(=O)(=O)NC(CCSC)C(=O)Nc1ccc(C)cc1C (centres undefined)	3.593%	-15.6%
COCCN1CCC2(CC1)CN(Cc1cccc(C)n1)C(=O)CO2	13.71%	-18.9%
Cc1n[nH]c(C(=O)NCc2ccnc(OCC(F)(F)F)c2)c1Br	17.35%	65.15%
COCCN1CCN(Cc2ccc(C(C)=O)cc2)[C@H]2CS(=O)(=O)C[C@H]21	15.93%	-
CC(C)c1ncc2c(n1)CN(Cc1nc(-c3ccccn3)no1)CC2	17.22%	-2.951%
CCc1noc(CCC(=O)N[C@@H]2CC[C@@H](n3ccnc3C)[C@@H]2O)n1	14.84%	6.036%
Cc1cc(C(=O)N2CC[C@H]3C[C@H](c4ccncn4)O[C@@H]3C2)no1	-2.614%	-
Cc1nc(-c2cn(CCN)nn2)n(-c2ccc3c(c2)CCC3)n1	11.24%	11.34%
CN(Cc1ccncc1)CC1CCCN(CCc2ccc(Cl)cc2)C1 (centres undefined)	19.83%	6.124%
CCN1CCN(C2CCN(Cc3nc(C4CC4)no3)CC2)C1=O	17.18%	-10.3%
Cc1cnn(C2CN(CC(O)COc3ccc(C#N)cc3)C2)c1 (centres undefined)	10.36%	3.301%
COCCSc1ccc(C(C)NC(=O)Nc2cn[nH]c2)cc1 (centres undefined)	13.09%	-4.252%
COc1ccccc1OCCNC(=O)N1CCC(n2cncn2)CC1	22.79%	-2.296%
O=C(CS(=O)(=O)c1ccc(Cl)cc1)NC1CCCc2ccccc21 (centres undefined)	-7.444%	17.58%
Cc1cc(CN2C[C@@H]3CCCO[C@@H]3[C@H](Nc3ccccn3)C2)no1	19.7%	-
COc1ccc(Cl)cc1NC(=O)CCNc1ccc(C#N)cn1	12.05%	21.76%

Repeated from the top, 9 entries:

* O=C(C1=CCCC1)N1C[C@@H]2COC[C@]2(COCC2CC2)C1 | A: 12.4%
* Cc1nc(COCc2cnc3n2CCN(C2CCC2)C3C)cs1.O=C(O)C(F)(F)F (centres undefined) | B: 7.427%
* Cc1cc(C(=O)N2CCNC(=O)CC2)c(C)n1CC(F)(F)F | A: 5.74%; B: -164%
* O=C1N(c2cncnc2)CCC12CCCN(Cc1cccnc1)C2 (centres undefined) | A: 13.33%
* Cl.NCC(=O)N1CCCC1c1n[nH]cc1-c1ccccc1F (centres undefined) | B: -2.029%
* O=C(CCN1CCCCO1)N1CCC(CO)(CCc2ccccc2)CC1 | A: 13.94%; B: -2.404%
* Cc1cc(-c2cnc(N3CCNC(=O)C3)nc2-c2ccoc2C)on1 | A: 11.65%; B: 1.913%
* CCc1noc(CN(Cc2cccs2)C2CC2)n1 | A: 5.722%; B: 0.1212%
* CCCc1ccc(CN2CCN(C(=O)C(C)C)[C@@H]3CS(=O)(=O)C[C@@H]32)o1 | A: 9.966%